This is one part of the list.
What was measured:
Assay in all cases: log2 fold change, soluble protein after heating vs DMSO (PISA); higher = thermal stabilisation; K562 cells, 10 uM, 30 min; active = over 0.2 and 3.5 SD of the protein, either way, in both replicates (recomputed)
[1] = compound: C1=CC=C(C=C1)[C@H](COC2=CC3=C(C=C2)NC(=O)N3)NC(=O)C4=CC=CN(C4=O)CC5=CC(=C(C=C5)F)F
In short: (§1)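 Soluble protein was quantified by TMTpro 16plex LC-MS/MS after channel sums were equalised. It was obtained as the supernatant after 21,000xg for 90 min from pooled aliquots of K562 cells (2×10^6 cells/mL, 10 μM compound, 30 min) heated for 3 min across 48°C-58°C and extracted in PBS with 0.5% NP-40 at 4°C. Thermal stability values are relative to control samples and come from duplicates. They are given as log2 fold changes.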

Protein sequences, listed by entry. Tags and fused reporters are not part of them. Lines headed by an entry give the natural chain unless they say otherwise; changes in a name come on top.
UniProt Q70IA6: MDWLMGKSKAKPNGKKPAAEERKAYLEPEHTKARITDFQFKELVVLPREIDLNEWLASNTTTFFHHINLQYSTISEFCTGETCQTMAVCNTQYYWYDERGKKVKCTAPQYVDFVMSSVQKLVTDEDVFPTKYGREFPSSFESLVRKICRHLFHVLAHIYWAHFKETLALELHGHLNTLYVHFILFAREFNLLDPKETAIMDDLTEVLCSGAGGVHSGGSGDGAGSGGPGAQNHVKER
UniProt Q9BWT6: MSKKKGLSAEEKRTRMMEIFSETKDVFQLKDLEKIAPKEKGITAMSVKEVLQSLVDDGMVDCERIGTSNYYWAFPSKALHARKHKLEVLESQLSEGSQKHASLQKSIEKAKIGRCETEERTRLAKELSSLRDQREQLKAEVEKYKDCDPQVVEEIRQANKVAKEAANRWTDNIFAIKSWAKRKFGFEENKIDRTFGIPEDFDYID
UniProt Q8N108: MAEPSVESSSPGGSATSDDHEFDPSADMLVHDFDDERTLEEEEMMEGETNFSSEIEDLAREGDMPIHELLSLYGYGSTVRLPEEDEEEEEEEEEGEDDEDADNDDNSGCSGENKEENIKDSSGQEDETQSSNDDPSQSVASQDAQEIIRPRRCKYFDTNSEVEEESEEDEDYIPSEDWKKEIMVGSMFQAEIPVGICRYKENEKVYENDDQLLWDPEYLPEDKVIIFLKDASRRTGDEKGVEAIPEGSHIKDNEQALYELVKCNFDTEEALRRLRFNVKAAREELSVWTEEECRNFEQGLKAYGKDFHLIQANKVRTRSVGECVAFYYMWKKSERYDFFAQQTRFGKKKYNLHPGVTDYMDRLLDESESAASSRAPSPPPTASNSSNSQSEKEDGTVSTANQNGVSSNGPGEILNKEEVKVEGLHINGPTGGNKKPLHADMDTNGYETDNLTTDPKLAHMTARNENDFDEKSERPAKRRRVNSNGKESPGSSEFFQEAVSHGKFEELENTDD
UniProt Q8NHP6: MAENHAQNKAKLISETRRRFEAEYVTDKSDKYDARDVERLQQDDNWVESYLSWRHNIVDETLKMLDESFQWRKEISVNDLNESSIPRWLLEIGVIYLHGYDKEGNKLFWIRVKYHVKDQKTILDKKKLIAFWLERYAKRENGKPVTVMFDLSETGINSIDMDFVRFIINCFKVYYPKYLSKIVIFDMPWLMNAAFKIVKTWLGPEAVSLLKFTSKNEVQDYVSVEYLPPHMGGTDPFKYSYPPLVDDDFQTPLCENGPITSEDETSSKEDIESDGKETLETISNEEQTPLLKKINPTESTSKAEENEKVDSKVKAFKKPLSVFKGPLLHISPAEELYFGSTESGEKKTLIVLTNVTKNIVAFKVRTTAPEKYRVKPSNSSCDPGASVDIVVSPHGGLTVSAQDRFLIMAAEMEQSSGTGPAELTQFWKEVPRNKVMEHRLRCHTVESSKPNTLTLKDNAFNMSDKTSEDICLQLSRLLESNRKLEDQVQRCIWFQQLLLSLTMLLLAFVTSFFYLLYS
UniProt Q99549: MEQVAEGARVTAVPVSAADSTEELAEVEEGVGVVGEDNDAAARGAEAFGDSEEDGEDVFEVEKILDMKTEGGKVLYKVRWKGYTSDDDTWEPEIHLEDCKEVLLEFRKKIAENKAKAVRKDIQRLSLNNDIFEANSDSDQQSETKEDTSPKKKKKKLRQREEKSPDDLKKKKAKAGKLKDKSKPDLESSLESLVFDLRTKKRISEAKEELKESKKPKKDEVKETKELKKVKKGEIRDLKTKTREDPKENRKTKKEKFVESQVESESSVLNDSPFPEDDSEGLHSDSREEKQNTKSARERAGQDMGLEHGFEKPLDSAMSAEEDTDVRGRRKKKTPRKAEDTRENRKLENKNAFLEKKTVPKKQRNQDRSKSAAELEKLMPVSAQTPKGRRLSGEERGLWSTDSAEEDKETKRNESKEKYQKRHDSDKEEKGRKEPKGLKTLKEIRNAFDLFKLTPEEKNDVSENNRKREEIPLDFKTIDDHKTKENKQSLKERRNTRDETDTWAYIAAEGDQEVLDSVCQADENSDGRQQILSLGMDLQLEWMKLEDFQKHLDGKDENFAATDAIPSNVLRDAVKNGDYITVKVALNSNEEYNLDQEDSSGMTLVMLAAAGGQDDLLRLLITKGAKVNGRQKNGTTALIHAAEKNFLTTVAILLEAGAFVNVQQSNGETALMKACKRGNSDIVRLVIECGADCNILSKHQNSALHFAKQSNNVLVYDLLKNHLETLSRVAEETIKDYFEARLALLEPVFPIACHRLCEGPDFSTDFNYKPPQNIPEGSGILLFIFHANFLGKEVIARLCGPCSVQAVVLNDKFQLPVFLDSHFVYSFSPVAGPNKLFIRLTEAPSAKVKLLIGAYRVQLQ
UniProt P39210: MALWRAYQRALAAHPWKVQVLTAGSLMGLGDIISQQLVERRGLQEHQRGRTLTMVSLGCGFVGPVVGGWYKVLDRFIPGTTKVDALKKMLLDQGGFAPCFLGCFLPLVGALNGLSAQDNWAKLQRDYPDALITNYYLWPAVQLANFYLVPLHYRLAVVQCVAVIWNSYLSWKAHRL
UniProt Q7Z3K6: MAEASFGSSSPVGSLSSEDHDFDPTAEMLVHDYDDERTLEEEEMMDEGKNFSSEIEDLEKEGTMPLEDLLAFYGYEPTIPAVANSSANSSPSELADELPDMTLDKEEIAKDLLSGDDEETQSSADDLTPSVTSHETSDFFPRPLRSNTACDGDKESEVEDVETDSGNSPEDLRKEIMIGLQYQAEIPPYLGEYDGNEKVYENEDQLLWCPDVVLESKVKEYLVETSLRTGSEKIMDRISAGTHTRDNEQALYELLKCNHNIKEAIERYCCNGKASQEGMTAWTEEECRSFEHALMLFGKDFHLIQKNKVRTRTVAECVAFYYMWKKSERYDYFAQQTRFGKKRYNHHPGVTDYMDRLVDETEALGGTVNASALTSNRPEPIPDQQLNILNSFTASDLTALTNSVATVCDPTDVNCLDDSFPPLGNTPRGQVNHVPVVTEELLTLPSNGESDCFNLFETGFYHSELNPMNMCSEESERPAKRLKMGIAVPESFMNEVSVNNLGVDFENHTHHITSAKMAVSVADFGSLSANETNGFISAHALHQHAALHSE
UniProt P40692: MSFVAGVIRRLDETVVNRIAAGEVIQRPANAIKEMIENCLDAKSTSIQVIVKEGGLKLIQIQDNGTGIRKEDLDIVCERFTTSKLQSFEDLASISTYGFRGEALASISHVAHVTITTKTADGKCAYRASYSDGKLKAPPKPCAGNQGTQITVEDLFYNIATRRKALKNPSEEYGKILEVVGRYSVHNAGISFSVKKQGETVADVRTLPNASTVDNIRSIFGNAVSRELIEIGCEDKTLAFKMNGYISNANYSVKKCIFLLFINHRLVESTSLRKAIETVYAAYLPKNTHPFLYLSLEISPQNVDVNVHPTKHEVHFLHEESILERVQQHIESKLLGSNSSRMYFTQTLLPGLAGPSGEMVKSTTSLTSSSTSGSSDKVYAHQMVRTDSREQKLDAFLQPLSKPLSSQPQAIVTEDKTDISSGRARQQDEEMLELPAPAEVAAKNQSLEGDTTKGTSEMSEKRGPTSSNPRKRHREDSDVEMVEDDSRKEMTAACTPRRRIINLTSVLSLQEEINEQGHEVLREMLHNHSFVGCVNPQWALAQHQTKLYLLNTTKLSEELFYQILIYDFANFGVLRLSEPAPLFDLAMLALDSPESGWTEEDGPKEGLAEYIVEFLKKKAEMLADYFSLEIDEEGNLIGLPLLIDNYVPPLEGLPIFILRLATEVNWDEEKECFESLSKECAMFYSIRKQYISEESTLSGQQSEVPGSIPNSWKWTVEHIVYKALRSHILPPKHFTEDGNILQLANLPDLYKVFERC
UniProt Q9NPA3, whole entry, looked up: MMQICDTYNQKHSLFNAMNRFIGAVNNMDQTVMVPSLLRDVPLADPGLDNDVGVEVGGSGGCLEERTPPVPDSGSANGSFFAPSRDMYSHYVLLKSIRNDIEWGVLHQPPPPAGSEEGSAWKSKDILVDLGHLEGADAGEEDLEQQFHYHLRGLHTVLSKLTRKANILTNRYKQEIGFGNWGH
UniProt P08473: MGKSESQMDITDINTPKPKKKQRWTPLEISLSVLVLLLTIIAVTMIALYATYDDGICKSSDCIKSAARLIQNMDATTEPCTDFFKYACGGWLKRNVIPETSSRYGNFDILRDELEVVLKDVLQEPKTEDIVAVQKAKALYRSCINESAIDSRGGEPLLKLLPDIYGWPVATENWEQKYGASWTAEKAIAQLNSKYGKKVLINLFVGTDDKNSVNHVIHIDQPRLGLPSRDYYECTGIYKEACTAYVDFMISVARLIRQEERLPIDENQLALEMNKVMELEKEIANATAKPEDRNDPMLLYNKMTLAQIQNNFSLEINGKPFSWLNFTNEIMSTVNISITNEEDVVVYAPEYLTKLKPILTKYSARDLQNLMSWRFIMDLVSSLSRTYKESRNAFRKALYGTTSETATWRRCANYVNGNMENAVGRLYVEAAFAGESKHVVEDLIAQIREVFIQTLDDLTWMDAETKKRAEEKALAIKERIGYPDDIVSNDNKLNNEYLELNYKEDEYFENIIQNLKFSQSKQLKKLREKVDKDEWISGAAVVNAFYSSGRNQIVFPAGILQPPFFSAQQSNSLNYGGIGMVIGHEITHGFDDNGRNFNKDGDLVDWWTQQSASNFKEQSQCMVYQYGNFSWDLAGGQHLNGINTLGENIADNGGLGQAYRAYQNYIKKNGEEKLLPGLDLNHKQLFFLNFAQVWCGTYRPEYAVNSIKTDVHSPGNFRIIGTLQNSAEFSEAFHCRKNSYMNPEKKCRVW
UniProt Q8NB16: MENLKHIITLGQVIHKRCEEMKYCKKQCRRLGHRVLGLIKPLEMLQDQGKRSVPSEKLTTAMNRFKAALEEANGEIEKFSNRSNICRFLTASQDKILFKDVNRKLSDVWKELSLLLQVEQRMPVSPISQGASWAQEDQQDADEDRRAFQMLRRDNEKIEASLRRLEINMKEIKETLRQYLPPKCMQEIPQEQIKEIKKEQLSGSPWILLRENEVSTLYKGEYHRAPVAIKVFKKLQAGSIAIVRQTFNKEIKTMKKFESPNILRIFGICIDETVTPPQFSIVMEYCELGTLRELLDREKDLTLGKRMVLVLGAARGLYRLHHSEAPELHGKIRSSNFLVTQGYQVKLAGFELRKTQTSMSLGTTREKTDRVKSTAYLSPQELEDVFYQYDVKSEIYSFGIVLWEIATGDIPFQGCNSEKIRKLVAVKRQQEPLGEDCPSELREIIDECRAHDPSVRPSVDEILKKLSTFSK
UniProt Q6NTE8: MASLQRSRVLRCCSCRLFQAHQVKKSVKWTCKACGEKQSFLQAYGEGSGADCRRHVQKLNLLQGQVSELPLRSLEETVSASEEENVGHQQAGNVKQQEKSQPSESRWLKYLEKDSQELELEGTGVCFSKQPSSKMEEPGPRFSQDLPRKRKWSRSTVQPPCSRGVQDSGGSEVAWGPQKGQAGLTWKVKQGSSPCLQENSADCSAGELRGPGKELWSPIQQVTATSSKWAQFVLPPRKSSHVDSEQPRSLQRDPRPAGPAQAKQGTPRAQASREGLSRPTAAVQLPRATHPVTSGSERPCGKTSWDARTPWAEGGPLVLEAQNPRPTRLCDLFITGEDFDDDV
UniProt Q5TGZ0: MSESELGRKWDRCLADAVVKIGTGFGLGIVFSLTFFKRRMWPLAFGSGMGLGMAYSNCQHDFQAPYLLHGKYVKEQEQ
UniProt Q9UI43: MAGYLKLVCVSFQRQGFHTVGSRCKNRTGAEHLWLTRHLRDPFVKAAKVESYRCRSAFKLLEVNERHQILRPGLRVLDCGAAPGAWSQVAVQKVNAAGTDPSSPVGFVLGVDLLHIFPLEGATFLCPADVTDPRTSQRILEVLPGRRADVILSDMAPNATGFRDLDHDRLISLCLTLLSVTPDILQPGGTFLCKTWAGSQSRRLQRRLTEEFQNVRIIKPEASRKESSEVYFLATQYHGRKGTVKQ
UniProt Q13064: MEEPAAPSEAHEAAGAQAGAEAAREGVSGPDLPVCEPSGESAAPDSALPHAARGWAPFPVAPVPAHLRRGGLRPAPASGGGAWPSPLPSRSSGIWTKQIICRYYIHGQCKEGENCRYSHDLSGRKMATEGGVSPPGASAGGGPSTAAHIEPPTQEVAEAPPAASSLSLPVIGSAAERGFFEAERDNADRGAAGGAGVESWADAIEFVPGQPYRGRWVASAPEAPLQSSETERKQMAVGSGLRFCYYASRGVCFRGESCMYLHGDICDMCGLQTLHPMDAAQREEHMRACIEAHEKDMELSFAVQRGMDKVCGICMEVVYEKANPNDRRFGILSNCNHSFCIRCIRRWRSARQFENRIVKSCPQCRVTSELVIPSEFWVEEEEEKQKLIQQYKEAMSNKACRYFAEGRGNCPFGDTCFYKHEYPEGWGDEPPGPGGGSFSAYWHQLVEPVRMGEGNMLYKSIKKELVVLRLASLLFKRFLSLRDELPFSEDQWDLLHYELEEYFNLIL
UniProt O96033: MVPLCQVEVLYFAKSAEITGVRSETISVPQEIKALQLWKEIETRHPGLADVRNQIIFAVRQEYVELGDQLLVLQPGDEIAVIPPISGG
UniProt Q9Y5U8: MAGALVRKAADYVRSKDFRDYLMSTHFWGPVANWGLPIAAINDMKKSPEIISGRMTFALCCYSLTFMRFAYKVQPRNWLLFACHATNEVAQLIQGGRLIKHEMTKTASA

[2] = compound: CC1=C(SC2=C1C(=N[C@H](C3=NN=C(N32)C)CC(=O)N)C4=CC=C(C=C4)Cl)C
In short: as §1

[3] = compound: Cc1sc2c(c1C)C(c1ccc(Cl)cc1)=N[C@@H](CC(=O)OC(C)(C)C)c1nnc(C)n1-2
In short: as §1

[4] = compound: c1ccc([C@@H]2C[C@H]2NC2CCNCC2)cc1
In short: as §1

[5] = compound: CC1=C2C(=CC=C1)N=C(N(C2=O)C3=CC=CC=C3C)CN4C=NC5=C(N=CN=C54)N
In short: as §1

Measured: log2 fold change

MOB2 isoform 3 (UniProt Q70IA6)
inactive: [1] -0.015 | [2] 0.129 | [3] 0.067 | [4] -0.096

MND1 (UniProt Q9BWT6)
inactive: [1] 0.009 | [2] 0.012 | [5] 0.081 | [3] 0.088 | [4] 0.102

MIER1 isoform 12 (UniProt Q8N108)
inactive: [1] -0.012 | [2] 0.073 | [5] 0.059 | [3] 0.016 | [4] 0.02

MPP6 (UniProt Q9NZW5)
inactive: [1] -0.041 | [2] 0.07 | [5] 0.077 | [3] 0.03 | [4] 0.019

MRPL13 (UniProt Q9BYD1)
inactive: [1] 0.009 | [2] -0.149 | [5] -0.104 | [3] 0.013 | [4] 0

MOSPD2 (UniProt Q8NHP6)
inactive: [1] -0.011 | [2] 0.016 | [5] 0.061 | [3] 0.022 | [4] -0.018

MIER2 (UniProt Q8N344)
inactive: [2] 0.006 | [5] -0.093 | [4] 0.215

MICAL1 isoform 4 (UniProt Q8TDZ2)
inactive: [2] 0.075 | [5] 0.102 | [4] 0.045

MPHOSPH8 isoform 2 (UniProt Q99549)
inactive: [2] -0.064 | [5] -0.009 | [3] 0.089 | [4] 0.061

MPV17 (UniProt P39210)
inactive: [1] 0.01 | [2] 0.021 | [3] -0.087 | [4] 0.048

MIER3 isoform 2 (UniProt Q7Z3K6)
inactive: [5] -0.043

MINDY2 (UniProt Q8NBR6)
inactive: [2] 0.12 | [3] 0.022 | [4] 0.126

MLH1 (UniProt P40692)
inactive: [1] 0.192 | [2] 0.007 | [3] -0.109 | [4] -0.065

MPP1 (UniProt Q00013)
inactive: [1] -0.055 | [2] -0.06 | [5] 0.051 | [3] -0.024 | [4] 0.013

MID1IP1 (UniProt Q9NPA3)
inactive: [1] 0.02 | [5] 0.322 | [3] -0.227

MRPL15 (UniProt Q9P015)
inactive: [1] 0.06 | [2] -0.142 | [5] -0.024 | [3] 0.157 | [4] 0.01

MRPL49 (UniProt Q13405)
inactive: [1] 0.052 | [2] -0.041 | [5] 0.055 | [3] -0.058 | [4] -0.01

Looked up one by one from the list above (two):
MID1IP1 (UniProt Q9NPA3)
inactive: [1] 0.02 | [5] 0.322 | [3] -0.227

MRPL15 (UniProt Q9P015)
inactive: [1] 0.06 | [2] -0.142 | [5] -0.024 | [3] 0.157 | [4] 0.01

Next records:

MPZL1 isoform 3 (UniProt O95297)
inactive: [2] 0.017 | [3] -0.029 | [4] -0.095

MLEC (UniProt Q14165)
inactive: [1] 0.046 | [2] 0.009 | [5] 0.018 | [3] -0.009 | [4] -0.021

MME (UniProt P08473)
inactive: [1] -0.051 | [5] -0.114

MRPL1 (UniProt Q9BYD6)
inactive: [1] 0.042 | [2] -0.063 | [5] -0.116 | [3] 0.154 | [4] 0.015

MON1A (UniProt Q86VX9)
inactive: [1] 0.1 | [3] -0.071

MLKL (UniProt Q8NB16)
inactive: [2] 0.049 | [5] 0.086 | [3] -0.05 | [4] 0.047

MRNIP (UniProt Q6NTE8)
inactive: [5] 0.02 | [3] -0.175

MICALL1 (UniProt Q8N3F8)
inactive: [2] 0.087 | [5] 0.147 | [3] 0.152 | [4] 0.066

MICOS10 (UniProt Q5TGZ0)
inactive: [1] -0.085 | [5] -0.079 | [3] -0.238

MINPP1 (UniProt Q9UNW1)
inactive: [1] -0.007 | [2] 0.002 | [5] -0.016 | [3] 0.009 | [4] 0.036

MRM2 (UniProt Q9UI43)
inactive: [2] 0.021 | [5] 0.071 | [3] 0 | [4] -0.052

MKRN3 (UniProt Q13064)
inactive: [5] 0.164 | [3] -0.025

MOCS2 (UniProt O96033)
inactive: [2] 0.475 | [3] -0.044 | [4] -0.216

MPC1 (UniProt Q9Y5U8)
inactive: [1] 0.272 | [2] 0.051 | [3] -0.164 | [4] -0.05

— the supplement of paper PMC10849652
